Experiment: color rendering property, visual observation under tungsten lamp vs standard light source
Set-up: key: ∘: a small deviation in hue; Δ: a medium deviation in hue; ×: a large deviation in hue

Nc1ccc2cc(S(=O)(=O)O)c(N=Nc3ccc(N=Nc4cc(C(=O)O)cc(C(=O)O)c4)c4ccccc34)c(O)c2c1 [Comparative Example 2]
Color Rendering property (plain paper): Δ
Color Rendering property (special paper A): Δ

From patent publication US6589325B1, “Phthalocyanine compounds, water-base ink compositions and colored products” (Nippon Kayaku Kabushiki Kaisha, priority 1999, dated 2003)
